This passage reports survivor count and T/C results from PubChem BioAssay AID256 (DTP/NCI, 2004).

The list does not hold the whole screen: it gathers tests that were run many times, whatever their T/C, doses with no T/C, and many T/C values between a quarter and a half above the control. Other doses and runs of a compound stand elsewhere. T/C is the treated group as % of the vehicle group. Some entries give survivors of the animals treated and no T/C: the source files T/C as zero there, which appears to mark a toxic dose or a test without result, not a measured value. Some doses without a T/C left all or most animals alive at the check, yet need not have been tolerated: survival well below the control is almost never listed, so the zero probably covers shortened survival too. Counts of survivors are from the toxicity check (mostly the fifth day) where no day follows; animals may have died later. Schedules are NCI's codes, read here as Q, the interval in days (D) or hours (H), X, the number of doses. Where survival is the endpoint, this PubChem deposit counts one and a half times the control or more as active, and values a quarter to a half above the control carry no call in these data; other NCI protocols may use other cut-offs. Some doses were run more than once; their values stand side by side, smallest first.

The test system of the assay is CD2F1 mice, L1210 leukemia ip, survival T/C. Briefly: NCI In Vivo Anticancer Drug Screen. Data for tumor model L1210 Leukemia (intraperitoneal) in CD2F1 (CDF1) mice. The conditions noted are these: higher T/C = longer survival. In short, it runs like this:
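Activity against a transplanted murine tumor was judged by comparing the compound group with a vehicle group. The outcome in the treated animals was divided by that in the controls.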

The mark [1] stands for this setting: T/C endpoint: mean survival time, dose: 150.0 mg/kg/injection, schedule: Q01DX001 (ip), vehicle: other.
Where [2] appears, read: T/C endpoint: mean survival time, dose: 300.0 mg/kg/injection, schedule: Q01DX001 (ip), vehicle: other.
Setting [3] is: T/C endpoint: mean survival time, dose: 100.0 mg/kg/injection, schedule: Q01DX001 (ip), vehicle: saline.
Setting [4] is: T/C endpoint: mean survival time, dose: 100.0 mg/kg/injection, schedule: Q04DX003 (ip), vehicle: saline with Tween-80.
Where [5] appears, read: T/C endpoint: mean survival time, dose: 400.0 mg/kg/injection, schedule: Q04DX003 (ip), vehicle: saline with Tween-80.
[6] abbreviates: T/C endpoint: mean survival time, dose: 100.0 mg/kg/injection, schedule: Q01DX009 (ip), vehicle: Klucel (hydroxypropylcellulose) (HPC).
Setting [7] is: T/C endpoint: mean survival time, dose: 200.0 mg/kg/injection, schedule: Q01DX009 (ip), vehicle: Klucel (hydroxypropylcellulose) (HPC).
Setting [8] is: T/C endpoint: mean survival time, dose: 200.0 mg/kg/injection, schedule: Q04DX003 (ip), vehicle: saline with Tween-80.
Where [9] appears, read: T/C endpoint: mean survival time, dose: 400.0 mg/kg/injection, schedule: Q01DX001 (ip), vehicle: saline with Tween-80.

Turning to `NC(N)=Nc1ncnc2nncnc12`, the survivor count is, setting by setting: (T/C endpoint: mean survival time, dose: 75.0 mg/kg/injection, schedule: Q01DX001 (ip), vehicle: other) 0 of 6; under setting [1], 0 of 6; under setting [2], 0 of 6.
`CN(C)C=NCCc1ccccc1`: the survivor count reads like this: under setting [3], 1 of 4; (T/C endpoint: mean survival time, dose: 200.0 mg/kg/injection, schedule: Q01DX001 (ip), vehicle: saline) 0 of 4; (T/C endpoint: mean survival time, dose: 400.0 mg/kg/injection, schedule: Q01DX001 (ip), vehicle: saline) 0 of 4.
In the case of `Clc1ccccc1C(Nc1cnccn1)Nc1cnccn1`, the survivor count (T/C endpoint: median survival time, dose: 400.0 mg/kg/injection, schedule: Q01DX009 (ip), vehicle: saline with Tween-80) was 2 of 6.
Consider `COC(=O)C1(F)C(=O)NC(=O)NC1OC` (configuration not stated), for which the T/C is, setting by setting: (T/C endpoint: median survival time, dose: 50.0 mg/kg/injection, schedule: Q01DX009 (ip), vehicle: Klucel (hydroxypropylcellulose) (HPC)) 148 % of control; (T/C endpoint: median survival time, dose: 100.0 mg/kg/injection, schedule: Q01DX005 (ip), vehicle: Klucel (hydroxypropylcellulose) (HPC)) 139 % of control; (T/C endpoint: median survival time, dose: 300.0 mg/kg/injection, schedule: Q01DX009 (ip), vehicle: Klucel (hydroxypropylcellulose) (HPC)) 149 % of control; (T/C endpoint: median survival time, dose: 333.33 mg/kg/injection, schedule: Q01DX009 (ip), vehicle: Klucel (hydroxypropylcellulose) (HPC)) 132 % of control; (T/C endpoint: median survival time, dose: 400.0 mg/kg/injection, schedule: Q01DX009 (ip), vehicle: Klucel (hydroxypropylcellulose) (HPC)) 135 and 145 % of control; (T/C endpoint: median survival time, dose: 555.56 mg/kg/injection, schedule: Q01DX009 (ip), vehicle: Klucel (hydroxypropylcellulose) (HPC)) 144 % of control. Besides, for the setting “T/C endpoint: median survival time, dose: 800.0 mg/kg/injection, schedule: Q01DX009 (ip), vehicle: Klucel (hydroxypropylcellulose) (HPC)”, the T/C is 126 % of control.
On to `CN1CCCN(C)C1c1ccccc1`, for which the survivor count (T/C endpoint: mean survival time, dose: 200.0 mg/kg/injection, schedule: Q04DX003 (ip), vehicle: saline) is 1 of 6 and the survivor count (T/C endpoint: mean survival time, dose: 400.0 mg/kg/injection, schedule: Q04DX003 (ip), vehicle: saline) is 0 of 6.
As to `N#Cc1ccc(NN=O)nc1`, the T/C reads like this: (T/C endpoint: median survival time, dose: 9.0 mg/kg/injection, schedule: Q01DX005 (ip), vehicle: water) 128 and 129 % of control; (T/C endpoint: median survival time, dose: 25.0 mg/kg/injection, schedule: Q01DX005 (ip), vehicle: water) 142 % of control; (T/C endpoint: median survival time, dose: 41.6 mg/kg/injection, schedule: Q01DX005 (ip), vehicle: water) 137 % of control. Moreover, the survivor count (T/C endpoint: median survival time, dose: 69.44 mg/kg/injection, schedule: Q01DX005 (ip), vehicle: water) is on record as 5 of 6.
In the case of `CCCCSc1cc(C)nc2ccccc12`, the survivor count is on record as 3 of 3 (T/C endpoint: mean survival time, dose: 200.0 mg/kg/injection, schedule: Q04DX002 (ip), vehicle: saline with Tween-80) and 2 of 3 (T/C endpoint: mean survival time, dose: 400.0 mg/kg/injection, schedule: Q04DX002 (ip), vehicle: saline with Tween-80).
With `Nc1ncnc2c(C3OC(CO)C(O)C3O)c[nH]c12` (configuration not stated), under “T/C endpoint: median survival time, dose: 0.2 mg/kg/injection, schedule: Q01DX005 (ip), vehicle: saline”, the T/C was 126 and 128 % of control.
With `O=C1C=C(N2CCOCC2)C(=O)c2nccnc21`, the survivor count under setting [4] is 0 of 6.
For `NCCS/C=C(\Br)C(=O)OCc1ccc(Br)cc1`, the survivor count under setting [5] is recorded as 0 of 6.
`Cc1cc(N(C)CCCl)ccc1N=Nc1ccccc1C(=O)O`: the survivor count reads like this: (T/C endpoint: mean survival time, dose: 50.0 mg/kg/injection, schedule: Q01DX009 (ip), vehicle: Klucel (hydroxypropylcellulose) (HPC)) 0 of 3; under setting [6], 0 of 3; under setting [7], 0 of 3.
Turning to `CCOC(=O)Oc1c(OC)cc(C(=O)O[C@@H]2C[C@@H]3CN4CCc5c([nH]c6cc(OC)ccc56)[C@H]4C[C@@H]3[C@H](C(=O)OC)[C@H]2OC)cc1OC`, the survivor count runs as follows: (T/C endpoint: mean survival time, dose: 50.0 mg/kg/injection, schedule: Q01DX009 (ip), vehicle: saline with Tween-80) 5 of 6; under setting [8], 4 of 6; under setting [5], 3 of 6.
For `O=C(O)C(=O)C(O)C(O)C(O)CO.O=C(O)C(=O)C(O)C(O)C(O)CO.[NH-]C1CCCCC1[NH-].[Pt+2]` (configuration not stated), the T/C is, setting by setting: (T/C endpoint: median survival time, dose: 12.5 mg/kg/injection, schedule: Q04DX003 (ip), vehicle: saline) 128 % of control; (T/C endpoint: median survival time, dose: 25.0 mg/kg/injection, schedule: Q04DX003 (ip), vehicle: saline) 137 and 138 % of control. The survivor count (T/C endpoint: median survival time, dose: 200.0 mg/kg/injection, schedule: Q04DX003 (ip), vehicle: saline) is on record as 5 of 6.
As to `C=CC1=NC(C)(C)CC(C)O1` (configuration not stated), the survivor count (T/C endpoint: mean survival time, dose: 12.5 mg/kg/injection, schedule: Q01DX009 (ip), vehicle: water) was 4 of 6; the survivor count (T/C endpoint: mean survival time, dose: 25.0 mg/kg/injection, schedule: Q01DX009 (ip), vehicle: water) was 0 of 6; the survivor count (T/C endpoint: mean survival time, dose: 50.0 mg/kg/injection, schedule: Q01DX009 (ip), vehicle: water) is given as 0 of 6; the survivor count (T/C endpoint: mean survival time, dose: 100.0 mg/kg/injection, schedule: Q01DX009 (ip), vehicle: water) was 0 of 6; the survivor count (T/C endpoint: mean survival time, dose: 200.0 mg/kg/injection, schedule: Q01DX009 (ip), vehicle: water) was 0 of 6.
Consider `COc1ccc(-n2c(=O)c(N=Nc3ccccc3)c(O)n(-c3ccccc3OC)c2=S)cc1`, for which the survivor count is, setting by setting: (T/C endpoint: mean survival time, dose: 100.0 mg/kg/injection, schedule: Q01DX001 (ip), vehicle: saline with Tween-80) 3 of 6; (T/C endpoint: mean survival time, dose: 200.0 mg/kg/injection, schedule: Q01DX001 (ip), vehicle: saline with Tween-80) 3 of 6; under setting [9], 0 of 6.
As to `COc1cc(C(=O)c2cc3c(cc2C)OCO3)cc(OC)c1OC`, the T/C under setting [6] is 129 % of control. For the same compound, the survivor count under setting [7] is 4 of 6.
As for `CC12CCC(C(=O)C1)C1(C)CCCC(=O)C21` (configuration not stated), the survivor count by setting is: under setting [1], 3 of 6; under setting [2], 0 of 6.
Take `CC(=O)NC1=CC(=O)C(C)=CC1=O`: the survivor count (T/C endpoint: mean survival time, dose: 20.0 mg/kg/injection, schedule: Q01DX001 (ip), vehicle: saline) is recorded as 3 of 6; the survivor count (T/C endpoint: mean survival time, dose: 40.0 mg/kg/injection, schedule: Q01DX001 (ip), vehicle: saline) is reported as 0 of 6; the survivor count (T/C endpoint: mean survival time, dose: 75.0 mg/kg/injection, schedule: Q01DX001 (ip), vehicle: saline) was 0 of 6; the survivor count (T/C endpoint: mean survival time, dose: 80.0 mg/kg/injection, schedule: Q01DX001 (ip), vehicle: saline) was 0 of 6; the survivor count (T/C endpoint: mean survival time, dose: 150.0 mg/kg/injection, schedule: Q01DX001 (ip), vehicle: saline) was 0 of 6; the survivor count (T/C endpoint: mean survival time, dose: 300.0 mg/kg/injection, schedule: Q01DX001 (ip), vehicle: saline) was 0 of 6.
As for `N=C(N)CCCCCCCCC(=N)N`, the survivor count (T/C endpoint: mean survival time, dose: 25.0 mg/kg/injection, schedule: Q01DX009 (ip), vehicle: saline) is on record as 1 of 6.
In the case of `COc1cccc(CC(C)N)c1OC` (configuration not stated), the survivor count reads like this: under setting [8], 0 of 6; under setting [5], 0 of 6.
For the compound `NOCc1cc(Cl)sc1Cl`, under setting [5], the survivor count is recorded as 1 of 6.
In the case of `COC1=CCC(OC)=C(C)C1`, the survivor count is listed as 6 of 6 under setting [8] and 1 of 6 under setting [5].
With `COc1ccccc1N=Nc1c(O)n(-c2ccccc2OC)c(=S)n(-c2ccc(Cl)cc2)c1=O`, the survivor count under setting [9] is 0 of 6.
Regarding `COC(=O)C[N+]1(C)C2CCC1CC(Cl)C2` (configuration not stated), the survivor count runs as follows: (T/C endpoint: mean survival time, dose: 50.0 mg/kg/injection, schedule: Q01DX001 (ip), vehicle: saline) 1 of 3; under setting [3], 0 of 3.
Turning to `CS(=O)(=O)c1nnc(S(C)(=O)=O)s1`, the survivor count by setting is: (T/C endpoint: mean survival time, dose: 25.0 mg/kg/injection, schedule: Q04DX003 (ip), vehicle: saline sonified) 3 of 6; (T/C endpoint: mean survival time, dose: 50.0 mg/kg/injection, schedule: Q04DX003 (ip), vehicle: saline sonified) 0 of 6; under setting [4], 3 of 6; under setting [8], 0 of 6; under setting [5], 0 of 6.
As for `Cc1cccc(NC2=NCCO2)c1`, the survivor count under setting [9] is reported as 0 of 6.
